Results are given in words; binding and its absence hold for the method and conditions named. Binding seen in cells or lysates may run through a third protein. Some entries that bind do so weakly or less than the wild type.

Chains of the proteins cited; added tags and fusions are not shown.
UniProt P22736: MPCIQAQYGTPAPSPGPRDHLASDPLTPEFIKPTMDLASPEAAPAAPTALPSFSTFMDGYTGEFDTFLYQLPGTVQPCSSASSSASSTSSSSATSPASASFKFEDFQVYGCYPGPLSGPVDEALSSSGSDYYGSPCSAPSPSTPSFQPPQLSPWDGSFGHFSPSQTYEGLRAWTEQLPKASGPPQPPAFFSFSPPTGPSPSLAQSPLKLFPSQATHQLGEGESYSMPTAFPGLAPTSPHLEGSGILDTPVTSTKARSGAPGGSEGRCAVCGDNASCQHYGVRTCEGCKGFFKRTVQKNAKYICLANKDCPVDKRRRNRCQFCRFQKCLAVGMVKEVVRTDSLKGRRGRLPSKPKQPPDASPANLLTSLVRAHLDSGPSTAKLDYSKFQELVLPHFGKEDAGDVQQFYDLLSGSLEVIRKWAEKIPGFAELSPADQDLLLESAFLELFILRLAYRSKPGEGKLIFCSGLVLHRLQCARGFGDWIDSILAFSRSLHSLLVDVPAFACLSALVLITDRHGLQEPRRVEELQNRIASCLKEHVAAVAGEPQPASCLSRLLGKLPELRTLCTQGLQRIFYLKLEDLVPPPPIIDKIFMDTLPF
UniProt P37231: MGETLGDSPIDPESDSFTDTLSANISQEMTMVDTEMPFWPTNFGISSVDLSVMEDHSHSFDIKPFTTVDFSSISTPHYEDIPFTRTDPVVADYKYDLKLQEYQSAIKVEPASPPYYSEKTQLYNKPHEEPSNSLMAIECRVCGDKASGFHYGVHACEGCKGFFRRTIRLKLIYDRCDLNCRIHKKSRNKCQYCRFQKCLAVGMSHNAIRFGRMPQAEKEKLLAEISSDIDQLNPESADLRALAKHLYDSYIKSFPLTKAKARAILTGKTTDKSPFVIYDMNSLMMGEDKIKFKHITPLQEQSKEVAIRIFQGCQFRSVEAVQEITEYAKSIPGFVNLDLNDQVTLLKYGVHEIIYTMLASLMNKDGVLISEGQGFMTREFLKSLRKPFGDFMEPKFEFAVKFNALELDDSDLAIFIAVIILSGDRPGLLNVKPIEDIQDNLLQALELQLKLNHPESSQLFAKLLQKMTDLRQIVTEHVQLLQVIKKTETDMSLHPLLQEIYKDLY

Test [1] concerns the target SmallBit-Nur77 (luciferase SmallBit fusion of Nur77) (UniProt P22736). Briefly: split reporter; PPARγ-LargeBit and SmallBit-Nur77 transiently expressed in HEK293T cells; furimazine, luminescence at 37 °C.
Test [2] deals with Nur77 (in HEK293T cells, co-immunoprecipitation) (UniProt P22736). Briefly: co-IP; HEK293T cells transfected with Nur77 and PPARγ plasmids, treated with peptide (ST-CY14 1 × 10^-5 M) for 24 h; NP40 lysis; IP with Nur77 antibody, blot for PPARγ and Trim13.

Regarding “PPARγ-LargeBit (luciferase LargeBit fusion of PPARγ) (from UniProt P37231 1-505)”, in test [1], the binding result was “binds”.

On to “PPARγ (in HEK293T cells, co-immunoprecipitation) (from UniProt P37231 1-505)”, for which, in test [2], the binding result is reported as “binds”.

Values taken from article PMC11234460, “In Silico Discovery of Stapled Peptide Inhibitor Targeting the Nur77‐PPARγ Interaction and Its Anti‐Breast‐Cancer Efficacy” (Advanced Science, 2024).
